Experimental data reported in patent publication US20080200492A1, “METHODS FOR THE TREATMENT OF ALCOHOL ABUSE, ADDICTION AND DEPENDENCY” (priority 2006, published 2008).

Assays:
[1] = tested on: alcohol preferring rats; experiment: Alcohol Preferring Rats In Vivo Model, acute oral dosing, two-bottle choice; set-up: species or system rat; conditions: 20 mg/kg p.o., mean ± S.E.M., N = 14
Procedure: Adult male selectively-bred alcohol preferring rats (N=14) were used. This particular strain of alcohol drinking rat has been characterized and have been widely used to study the effects of different compounds on voluntary alcohol intake (Farren et al., 2000; Rezvani et al, 1990, 1991, 1992a, 1992b, 1999, 2000, 2003; Murphy et al, 1988; Overstreet et al., 2003, 1999; Li and McBride, 1990). Rats were housed individually in approved cages under a constant room temperature of 22+1° C. and 12:12 light-dark cycle (8:00-20:00, dark). Animal were fed Agway Prolab Rat/Mouse/Hamster 3000 formula and water ad libitum.
Alcohol intake was determined using the standard two-bottle choice method utilized in our and other laboratories for many years (Murphy et al. 1988; Rezvani et al. 1990, 1991, 1993, 1995, 1997, Rezvani and Grady, 1994, Rezvani et al., 1993). Animals were first given free access to water in a graduated Richter tube for 2 days. Next, they were given access to only a solution of 10% (v/v) ethanol for 3 consecutive days. During this period animals became accustomed to drinking from Richter tubes and to the taste and pharmacological effects of alcohol. Thereafter, they were given free access to both water and a solution of 10% alcohol for at least 4 consecutive weeks and throughout of the period of study. Rats had free access to food. Water and alcohol intake were recorded at 6 and 24 hour after the treatment, whereas food intake was measured at 24 hour. Animals' body weights were measured the day of the treatment and the day after.
After establishment of stable baseline for alcohol, food, and water intake, rats were administered (gavage) at 9:30 a.m. either with the vehicle or the compound of formula (I) at one of four doses (1,3,10 and 30 mg/kg) using a cross-over design with random assignment. To be able to compare the efficacy of the compound of formula (I) on alcohol intake naltrexone was included as a positive control. The same rats were given an oral dose of 20 mg/kg naltrexone. All animals will receive all treatments in a random order. The interval between treatments was at least 1 week. Alcohol and water intake were recorded 6 and 24 h after the drug administration and food intake was recorded at 24 hr. The volume of the drug administration was 6 ml/kg.
The results at 6 and 24 hours post-dosing are presented in Tables 3 and 4 below, as means ±SEM. Alcohol intake (g/kg) was calculated by multiplying the volume of alcohol consumed in ml by 10% and 0.7893 (ethanol density)/body weight in kg. Alcohol preference, expressed as a percentage, was calculated as follows (volume of alcohol consumed in ml/total fluid intake in ml)×100 (Rezvani and Grady, 1994; Rezvani et al., 1997). Statistical differences between drug-treated and control groups were determined by using ANOVA with repeated measures. Each treatment was compared with the corresponding vehicle value.

[2] = tested on: alcohol preferring rats; experiment: Alcohol Preferring Rats, Study A: Chronic Administration (14 days); format: in vivo, rat; conditions: 20 mg/kg once a day, gavage
Procedure: Adult male selectively-bred alcohol preferring rats were used in this study. The selectively bred alcohol preferring rats are widely used to study the suppressant effects of compounds on voluntary alcohol intake (Faren et al. 2000; Rezvani et al, 1990, 1991, 1992a, 1992b, 1999, 2000, 2002; 2003; Murphy et al, 1988; Overstreet et al., 1992, 1999; Li and McBride, 1995).
The rats were housed individually under a constant room temperature of 22±1° C. and 12:12 light-dark cycle (7:00-19:00, dark). Animals were fed Agway Prolab Rat/Mouse/Hamster 3000 formula and water ad libitum.
Alcohol intake was determined using a standard two-bottle choice method (Murphy et al. 1988; McBride et al. 1990; Rezvani et al. 1990, 1991, 1993, 1995, 1997, Rezvani et al., 2007a,b; Rezvani and Grady, 1994). Animals were first given free access to water in a graduated Richter tube for 1 day. Next, they were given access to only a solution of 10% (v/v) ethanol for 3 consecutive days. During this period the animals became accustomed to drinking from Richter tubes and to the taste and pharmacological effects of alcohol. Thereafter, the animals were given free access to both water and a solution of 10% alcohol for 4 consecutive weeks and throughout of the study. The animals continued to have free access to food. Water and alcohol intake were recorded at 6 and 24 hour.
After establishment of a reliable baseline for alcohol, and water intake, the animals were randomly assigned to a treatment regimen. The animals were administered once a day, via gavage, either vehicle (0.5% methylcellulose) or compound of formula (I-A) (at 30 mg/kg) or naltrexone (at 20 mg/kg) for 14 consecutive days. A group of 6-7 animals was used for each treatment. Alcohol and water intake was recorded at 6 hrs and 24 hrs after administration.
The results are presented as a means ±SEM. Alcohol intake (g/kg) was calculated by multiplying the volume of alcohol consumed in ml by 10% and 0.7893 (ethanol density)/body weight in kg. Alcohol preference, expressed as percentage was calculated as (volume of alcohol consumed in ml/total fluid intake in ml)×100 (Rezvani and Grady, 1994; Rezvani et al., 2007a). Statistical differences between drug-treated and control groups was determined by using ANOVA and Tukey Student's t test for multiple comparison.
The results from Study A provide a measure of whether or not the animals develop tolerance to the suppressant effects of the test compound following a chronic treatment. In Tables 5-8 below, the abbreviation “(I-A)” stands for the compound of formula (I-A), the abbreviation “Naltx” stands for naltrexone, and the abbreviation “EtOH” stands for ethanol.

## O=C1CC[C@@]2(O)[C@H]3Cc4ccc(O)c5c4[C@@]2(CCN3CC2CC2)[C@H]1O5 [Naltrexone, naltrexone, reference compound]
[1]; 6 hrs post-dosing
  Total Fluid Intake: 39.7 ± 6.02 mL/kg
  Water Intake: 12.6 ± 2.48 mL/kg
[1]; 24 hrs post-dosing
  Food Intake: 19.1 ± 1.34 g
  Total Fluid Intake: 118 ± 10.8 mL/kg
  Water Intake: 29.9 ± 5.21 mL/kg
[2]; Day 1, 6 Hour Intake
  Water Intake: 12 g/kg
[2]; Day 1, 24 Hour Intake
  Water Intake: 28 g/kg
[2]; Day 2, 6 Hour Intake
  Water Intake: 14 g/kg
[2]; Day 2, 24 Hour Intake
  Water Intake: 29 g/kg
[2]; Day 3, 6 Hour Intake
  Water Intake: 12 g/kg
[2]; Day 3, 24 Hour Intake
  Water Intake: 30 g/kg
[2]; Day 4, 6 Hour Intake
  Water Intake: 9 g/kg
[2]; Day 4, 24 Hour Intake
  Water Intake: 21 g/kg
[2]; Day 5, 6 Hour Intake
  Water Intake: 9 g/kg
[2]; Day 5, 24 Hour Intake
  Water Intake: 18 g/kg
[2]; Day 6, 6 Hour Intake
  Water Intake: 5 g/kg
[2]; Day 6, 24 Hour Intake
  Water Intake: 36 g/kg
[2]; Day 7, 6 Hour Intake
  Water Intake: 5 g/kg
[2]; Day 7, 24 Hour Intake
  Water Intake: 14 g/kg
[2]; Day 8, 6 Hour Intake
  Water Intake: 3 g/kg
[2]; Day 8, 24 Hour Intake
  Water Intake: 13 g/kg
[2]; Day 9, 6 Hour Intake
  Water Intake: 4 g/kg
[2]; Day 9, 24 Hour Intake
  Water Intake: 10 g/kg
[2]; Day 10, 6 Hour Intake
  Water Intake: 4 g/kg
[2]; Day 10, 24 Hour Intake
  Water Intake: 13 g/kg
[2]; Day 11, 6 Hour Intake
  Water Intake: 1 g/kg
[2]; Day 11, 24 Hour Intake
  Water Intake: 1 g/kg
[2]; Day 12, 6 Hour Intake
  Water Intake: 2 g/kg
[2]; Day 12, 24 Hour Intake
  Water Intake: 2 g/kg
[2]; Day 13, 6 Hour Intake
  Water Intake: 4 g/kg
[2]; Day 13, 24 Hour Intake
  Water Intake: 4 g/kg
[2]; Day 14, 6 Hour Intake
  Water Intake: 3 g/kg
[2]; Day 14, 24 Hour Intake
  Water Intake: 10 g/kg
